Assay results: US7067486B2, “Acetylcholinesterase-derived peptides and uses thereof” (priority 1999, dated 2006)
At least one peptide structure holds a part that was inferred or is arguable (an end, a ring closure or a residue). Marks after values point to notes of the source that are not given here. Where no end group is shown, it is not given here.

System: CD34^+ cells
Experiment: Cell phenotyping of CD34+ liquid cultures by flow cytometry (CD34, CD33, CD15, CD41)
Assay type: cell-based, human
Source text: Cell Source: UCB was collected, following informed consent of the parents and with the approval of the Sourasky Medical Center Ethics Committee, as previously described [Grisaru et al. (1999a) Am. J. Obstet. Gynecol, 180, 1240–1243]. Following 1:1 (v/v) dilution in Iscove's modified Dulbecco medium (IMDM, Beit Haemek, Israel), mononuclear cells were separated using 3% gelatin (Difco, Detroit, Mich.) and Ficoll-Hypaque gradients (<1.077 g/ml; Pharmacia, Uppsala, Sweden) [Pick et al. (1998) Br. J. Haematol. 103, 639–50]. CD34^+ cells were enriched using CD34 immunoglobulin-coated magnetic beads (CD34 progenitor cell selection system, Dynal, Norway).CD34^+ cells analysis was performed by flow cytometry (Becton Dickinson Immunocytochemistry System Inc., San Jose, Calif.), using CD34-PE (Becton Dickinson Immunocytometry System, Inc.) and CD45-FITC (Dako, Glostrup, Denmark) monoclonal antibodies. […] Liquid Cultures: UCB CD34^+ cells were set for liquid cultures at a concentration of 10^5/mL in IMDM, containing 10% autologous plasma, 2 mM L-glutamine (Sigma Chemical Co., St Louis, Mo.), penicillin ([…]), streptomycin ([…]), amphotericin B (2×10^−5 M) (Sigma Chemical Co.), and heparin (20 IU/mL, Gibco, Grand Island, N.Y.), all in a fully humidified atmosphere at 37° C. and 5% CO2. The following elements were added where noted: • 1. […] Endothlial Growth factors: Epidermal growth factor (EGF 10 ng/ml, Sigma Chemical Co.), basic Fibroblast growth factor (bFGF 20 ng/ml, Sigma Chemical Co.) incubated in a serum free medium (SFM) for 48 hr. • 3. Stress mimicking conditions: Hydrocortisone sodium succinate (Abic Ltd., Netanya, Israel) at concentrations equivalent to normal, intermediate and stress serum cortisol levels (0.1, 0.6 and 1.2 μM, respectively (De Vroede et al., Arch. Des. […] Antisense oligonucleotides: 3′-terminal 2′-O-Methylated 15- and 20-mer oligodeoxynucleotides in the antisense (AS) orientation, targeted against the common sequence domain in human AChEmRNA and BuChE mRNA, as control, […], as detailed elsewhere [Grisaru et al. (1999b) Mol. Cell. Biol. 19, 788–95]. • 5. AChE C-terminal peptides: The following C-terminal peptides of the AChE synaptic (ASP, also denoted SEQ ID: No. 2) and readthrough (ARP, also denoted SEQ ID: No. 1) isoforms were synthesized using a 433A peptide synthesizer (PE Applied Biosystems, Inc., Norwalk, Conn.). • ASP: 1-[…]-40, also denoted as SEQ ID: No. 2. • ARP: 1-[…]-26, also denoted as SEQ ID: No. 1.
Culture Analyses: Twenty-four hr liquid cultures served for cytochemical staining, in situ hybridization, and cell proliferation assay by 5-bromo-2′-deoxy-Uridine (BrdU) incorporation [Grisaru et al. (1999b) id ibid.]. Twenty-eight day liquid cultures were sampled every 6–8 days for viable cell counting (using trypan blue dye exclusion), cell phenotyping (CD34^+, CD33^+ and CD41^+ quantification using flow cytometry, with CD34-PE, CD33-FITC (Immunotech/Coulter, Hialeah, Fla.), CD41-FITC (Immunoquality Products, Groningen, Netherlands) and CD45-FITC monoclonal antibodies), and growth of progenitor colony (granulocyte-macrophage and megakaryocytic), using previously described techniques (Pick et al. (1998) id ibid.). […] 11, 1049–57]. Nuclear staining w with 4′,6-diamidino-2- phenylindole [DAPI, see e.g., Peterson et al. (1999) Genetics 152, 427–439].

[1] = 2-week primary cultures of CD34+ cells from 1 to 3 individuals, ± SEM where noted
[2] = day 14, seeded at 50,000 cells/well, ARP 2 nM, cortisol 1.2 μM, ASP 2 nM, SCF 50 ng/ml, AS1 20 pM, PBAN 2 nM

GMQGPAGSGWEEGSGSPPGVTPLFSP [ARP]
MK (CD41^+) fold expansion [1]: 8.20 ± 4.50 fold | Myeloid (CD33^+) fold expansion [1]: 2.90 ± 0.65 fold | CD34+ cell counts in long-term culture (EAC + ARP, regardless of SCF, EAC alone plateaus at 21 days): facilitates further increases in CD34^+ counts up to at least 28 days | CD33^+ (early myeloids) [2]: 329.0 cells per culture × 10^−3 | CD33^+ and CD15^+ (total myeloids) [2]: 530.0 cells per culture × 10^−3 | CD34^+ (early progenitors) [2]: 87.2 cells per culture × 10^−3 | CD41^+ (megakaryocytes) [2]: 42.3^b cells per culture × 10^−3
